Test results as given in PMC11799434.
These are yes or no findings as the source states them, for the method shown. Some binding calls cover weakened binding; strength is not graded here.

Sequences of proteins named here, by UniProt entry; tags and fusion partners are left off. Residues count along the entry.
UniProt Q02763, residues 23-748: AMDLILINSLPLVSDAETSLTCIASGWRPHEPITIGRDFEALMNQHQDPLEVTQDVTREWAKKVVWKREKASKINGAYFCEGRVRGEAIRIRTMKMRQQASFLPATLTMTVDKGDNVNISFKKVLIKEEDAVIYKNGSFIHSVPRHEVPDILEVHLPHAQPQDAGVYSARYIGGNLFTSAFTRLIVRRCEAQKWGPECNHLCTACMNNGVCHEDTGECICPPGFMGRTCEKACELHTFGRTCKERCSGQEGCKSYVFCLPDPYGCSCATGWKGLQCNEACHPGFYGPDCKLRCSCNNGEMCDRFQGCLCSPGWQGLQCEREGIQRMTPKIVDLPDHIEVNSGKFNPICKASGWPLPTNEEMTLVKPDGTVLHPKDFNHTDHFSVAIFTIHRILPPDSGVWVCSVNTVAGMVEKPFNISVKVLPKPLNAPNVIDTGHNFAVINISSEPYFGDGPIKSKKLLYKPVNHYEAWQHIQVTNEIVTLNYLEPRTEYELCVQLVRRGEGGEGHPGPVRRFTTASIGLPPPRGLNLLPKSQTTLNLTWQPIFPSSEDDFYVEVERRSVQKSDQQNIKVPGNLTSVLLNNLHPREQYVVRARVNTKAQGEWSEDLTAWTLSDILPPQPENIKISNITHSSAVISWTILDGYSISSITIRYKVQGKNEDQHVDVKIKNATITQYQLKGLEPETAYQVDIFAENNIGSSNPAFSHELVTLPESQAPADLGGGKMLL
UniProt O15123, residues 19-496: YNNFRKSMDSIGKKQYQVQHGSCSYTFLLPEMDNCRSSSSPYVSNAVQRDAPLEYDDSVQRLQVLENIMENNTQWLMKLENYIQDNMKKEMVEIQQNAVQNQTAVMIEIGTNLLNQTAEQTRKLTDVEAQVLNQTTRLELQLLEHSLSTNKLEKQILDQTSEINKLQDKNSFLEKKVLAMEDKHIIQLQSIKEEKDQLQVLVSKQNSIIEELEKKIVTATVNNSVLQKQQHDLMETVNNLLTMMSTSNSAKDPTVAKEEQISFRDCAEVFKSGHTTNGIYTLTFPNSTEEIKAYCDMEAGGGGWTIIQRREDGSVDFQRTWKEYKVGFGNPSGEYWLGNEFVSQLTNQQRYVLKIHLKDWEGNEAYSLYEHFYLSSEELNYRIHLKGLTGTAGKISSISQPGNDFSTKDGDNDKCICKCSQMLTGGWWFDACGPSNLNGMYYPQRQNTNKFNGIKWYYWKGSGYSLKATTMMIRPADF

Molecular target: extracellular domain of human Tie2 fused with Fc (hTie2-ECD-Fc) (human) (UniProt Q02763)
Assay: BLI; recombinant hTie2-ECD immobilised on a biosensor; buffer or MT-100 incubated with the biosensor first, then Ang-2 allowed to bind; both purified

Substance: angiopoietin-2 (Ang-2) (from UniProt O15123 19-496) (ligand)
- binding: binds
